Experimental data as given in the supplement of paper PMC8728848.
The other results are listed elsewhere or left out.

Legend:
Test in all cases: glycan array binding signal (z-score within array); higher = stronger binding
Conditions in all cases: glycan notation: IUPAC condensed, linker removed
[1] = biological target: GlcNAc(b1-6)Gal(b1-4)GlcNAc
In short: (§1)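 Arrays were curated from the Consortium for Functional Glycomics database, 3228 in total, and kept only where the protein sequence was available. Binding is expressed as a within-array Z-score. This score was averaged across arrays of the same protein sequence at different concentrations or buffers and across linkers, and negative values can be read as non-binding.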

GlcNAc(b1-6)GalNAc = biological target: GlcNAc(b1-6)GalNAc
In short: as §1

GlcNAc3Prop(b1-4)GlcNAc = biological target: GlcNAc3Prop(b1-4)GlcNAc
In short: as §1

Kdn(a2-3)Gal(b1-3)GlcNAc = biological target: Kdn(a2-3)Gal(b1-3)GlcNAc
In short: as §1

Kdn(a2-3)Gal(b1-4)GlcNAc = biological target: Kdn(a2-3)Gal(b1-4)GlcNAc
In short: as §1

[2] = biological target: Man(a1-2)Man(a1-2)Man(a1-3)Man
In short: as §1

[3] = biological target: Man(a1-2)Man(a1-2)Man(a1-6)[Man(a1-3)]Man
In short: as §1

Man(a1-2)Man(a1-3)Man = biological target: Man(a1-2)Man(a1-3)Man
In short: as §1

[4] = biological target: Man(a1-2)Man(a1-3)[Man(a1-2)Man(a1-6)]Man
In short: as §1

[5] = biological target: Man(a1-2)Man(a1-3)[Man(a1-2)Man(a1-6)]Man(a1-6)[Man(a1-2)Man(a1-2)Man(a1-3)]Man
In short: as §1

[6] = biological target: Man(a1-2)Man(a1-3)[Man(a1-2)Man(a1-6)]Man(a1-6)[Man(a1-2)Man(a1-2)Man(a1-3)]Man(b1-4)GlcNAc(b1-4)GlcNAc
In short: as §1

[7] = biological target: Man(a1-2)Man(a1-3)[Man(a1-6)]Man(a1-6)[Man(a1-2)Man(a1-3)]Man(b1-4)GlcNAc(b1-4)GlcNAc
In short: as §1

[8] = biological target: Man(a1-2)Man(a1-6)[Man(a1-3)]Man(a1-6)[Man(a1-2)Man(a1-2)Man(a1-3)]Man
In short: as §1

[9] = biological target: Man(a1-2)Man(a1-6)[Man(a1-3)]Man(a1-6)[Man(a1-2)Man(a1-2)Man(a1-3)]Man(b1-4)GlcNAc(b1-4)GlcNAc
In short: as §1

Man(a1-3)[Man(a1-6)]Man = biological target: Man(a1-3)[Man(a1-6)]Man
In short: as §1

[10] = biological target: Man(a1-3)[Man(a1-6)]Man(a1-6)[Man(a1-2)Man(a1-3)]Man(b1-4)GlcNAc(b1-4)GlcNAc
In short: as §1

[11] = biological target: Man(a1-3)[Man(a1-6)]Man(a1-6)[Man(a1-3)]Man
In short: as §1

[12] = biological target: Man(a1-3)[Man(a1-6)]Man(a1-6)[Man(a1-3)]Man(b1-4)GlcNAc(b1-4)GlcNAc
In short: as §1

[13] = biological target: Man(a1-3)[Man(a1-6)]Man(b1-4)GlcNAc(b1-4)GlcNAc
In short: as §1

Man(a1-6)Man = biological target: Man(a1-6)Man
In short: as §1

Man(b1-4)GlcNAc = biological target: Man(b1-4)GlcNAc
In short: as §1

Neu5Ac(a2-3)Gal = biological target: Neu5Ac(a2-3)Gal
In short: as §1

[14] = biological target: Neu5Ac(a2-3)Gal(b1-3)GalNAc
In short: as §1

[15] = biological target: Neu5Ac(a2-3)Gal(b1-3)GalNAc(b1-3)Gal(a1-4)Gal(b1-4)Glc
In short: as §1

[16] = biological target: Neu5Ac(a2-3)Gal(b1-3)GalNAc(b1-3)Gal(b1-4)GlcNAc
In short: as §1

[17] = biological target: Neu5Ac(a2-3)Gal(b1-3)GalNAc(b1-4)[Neu5Ac(a2-3)]Gal(b1-4)Glc
In short: as §1

[18] = biological target: Neu5Ac(a2-3)Gal(b1-3)GalNAc6S
In short: as §1

[19] = biological target: Neu5Ac(a2-3)Gal(b1-3)GlcNAc
In short: as §1

[20] = biological target: Neu5Ac(a2-3)Gal(b1-3)GlcNAc(b1-3)Gal(b1-3)GlcNAc
In short: as §1

[21] = biological target: Neu5Ac(a2-3)Gal(b1-3)GlcNAc6S
In short: as §1

[22] = biological target: Neu5Ac(a2-3)Gal(b1-3)[Fuc(a1-4)]GlcNAc
In short: as §1

[23] = biological target: Neu5Ac(a2-3)Gal(b1-3)[Fuc(a1-4)]GlcNAc(b1-3)Gal(b1-4)[Fuc(a1-3)]GlcNAc
In short: as §1

[24] = biological target: Neu5Ac(a2-3)Gal(b1-3)[Neu5Ac(a2-3)Gal(b1-4)]GlcNAc
In short: as §1

[25] = biological target: Neu5Ac(a2-3)Gal(b1-3)[Neu5Ac(a2-6)]GalNAc
In short: as §1

Neu5Ac(a2-3)Gal(b1-4)Glc = biological target: Neu5Ac(a2-3)Gal(b1-4)Glc
In short: as §1

[26] = biological target: Neu5Ac(a2-3)Gal(b1-4)GlcNAc
In short: as §1

[27] = biological target: Neu5Ac(a2-3)Gal(b1-4)GlcNAc(b1-2)Man(a1-3)[GlcNAc(b1-2)Man(b1-4)GlcNAc(b1-2)Man(a1-6)]Man(b1-4)GlcNAc(b1-4)GlcNAc
In short: as §1

[28] = biological target: Neu5Ac(a2-3)Gal(b1-4)GlcNAc(b1-2)Man(a1-3)[Neu5Ac(a2-6)Gal(b1-4)GlcNAc(b1-2)Man(a1-6)]Man(b1-4)GlcNAc(b1-4)GlcNAc
In short: as §1

[29] = biological target: Neu5Ac(a2-3)Gal(b1-4)GlcNAc(b1-3)Gal(b1-3)GlcNAc
In short: as §1

[30] = biological target: Neu5Ac(a2-3)Gal(b1-4)GlcNAc(b1-3)Gal(b1-4)GlcNAc
In short: as §1

[31] = biological target: Neu5Ac(a2-3)Gal(b1-4)GlcNAc(b1-3)Gal(b1-4)GlcNAc(b1-3)Gal(b1-4)GlcNAc
In short: as §1

[32] = biological target: Neu5Ac(a2-3)Gal(b1-4)GlcNAc(b1-3)Gal(b1-4)[Fuc(a1-3)]GlcNAc
In short: as §1

[33] = biological target: Neu5Ac(a2-3)Gal(b1-4)GlcNAc(b1-6)[Gal(b1-3)]GalNAc
In short: as §1

[34] = biological target: Neu5Ac(a2-3)Gal(b1-4)GlcNAc(b1-6)[Neu5Ac(a2-3)Gal(b1-3)]GalNAc
In short: as §1

[35] = biological target: Neu5Ac(a2-3)Gal(b1-4)GlcNAc6S
In short: as §1

B1: MCL (Mus musculus), Q9Z2H6 (protein)
chain: MWLEESQMKSKGTRHPQLIPCVFAVVSISFLSACFISTCLVTHHYFLRWTRGSVVKLSDYHTRVTCIREEPQPGATGGTWTCCPVSWRAFQSNCYFPLNDNQTWHESERNCSGMSSHLVTINTEAEQNFVTQLLDKRFSYFLGLADENVEGQWQWVDKTPFNPHTVFWEKGESNDFMEEDCVVLVHVHEKWVWNDFPCHFEVRRICKLPGITFNWKPSK
glycan array binding signal (z-score) [1]: -0.735 | glycan array binding signal (z-score) (GlcNAc(b1-6)GalNAc): -0.45 | glycan array binding signal (z-score) (GlcNAc3Prop(b1-4)GlcNAc): -0.588 | glycan array binding signal (z-score) (Kdn(a2-3)Gal(b1-3)GlcNAc): 0.241 | glycan array binding signal (z-score) (Kdn(a2-3)Gal(b1-4)GlcNAc): 0.01 | glycan array binding signal (z-score) [2]: 0.245 | glycan array binding signal (z-score) [3]: 0.597 | glycan array binding signal (z-score) (Man(a1-2)Man(a1-3)Man): -0.282 | glycan array binding signal (z-score) [4]: -0.391 | glycan array binding signal (z-score) [5]: -0.139 | glycan array binding signal (z-score) [6]: -0.66 | glycan array binding signal (z-score) [7]: 0.282 | glycan array binding signal (z-score) [8]: -0.171 | glycan array binding signal (z-score) [9]: 1.1 | glycan array binding signal (z-score) (Man(a1-3)[Man(a1-6)]Man): 0.611 | glycan array binding signal (z-score) [10]: 0.18 | glycan array binding signal (z-score) [11]: 0.384 | glycan array binding signal (z-score) [12]: -0.197 | glycan array binding signal (z-score) [13]: -0.106 | glycan array binding signal (z-score) (Man(a1-6)Man): -0.764 | glycan array binding signal (z-score) (Man(b1-4)GlcNAc): 1.06 | glycan array binding signal (z-score) (Neu5Ac(a2-3)Gal): -0.436 | glycan array binding signal (z-score) [14]: -0.584 | glycan array binding signal (z-score) [15]: -0.559 | glycan array binding signal (z-score) [16]: -0.471 | glycan array binding signal (z-score) [17]: -0.68 | glycan array binding signal (z-score) [18]: 1.7 | glycan array binding signal (z-score) [19]: 0.527 | glycan array binding signal (z-score) [20]: 0.595 | glycan array binding signal (z-score) [21]: -1.08 | glycan array binding signal (z-score) [22]: -0.576 | glycan array binding signal (z-score) [23]: -0.245 | glycan array binding signal (z-score) [24]: 2.08 | glycan array binding signal (z-score) [25]: 0.696 | glycan array binding signal (z-score) (Neu5Ac(a2-3)Gal(b1-4)Glc): -0.222 | glycan array binding signal (z-score) [26]: -0.111 | glycan array binding signal (z-score) [27]: 0.867 | glycan array binding signal (z-score) [28]: 0.233 | glycan array binding signal (z-score) [29]: -0.565 | glycan array binding signal (z-score) [30]: 0.327 | glycan array binding signal (z-score) [31]: 0.026 | glycan array binding signal (z-score) [32]: -0.084 | glycan array binding signal (z-score) [33]: -0.716 | glycan array binding signal (z-score) [34]: -0.531 | glycan array binding signal (z-score) [35]: -0.011
